Results as given in the supplement of paper PMC12823440, “Inhibitors supercharge kinase turnover through native proteolytic circuits” (Nature, 2025).
Counter-ions that a name gives are not always drawn. This is one part of the list. The calls rarely recur for the same compound in another form.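 Kinases were expressed as nanoluciferase fusions in K562 cells and luminescence was read every 4 h between 2 and 18 h as percent of control, DMSO set to 100% and a positive control to 0%. A time point counts as decreased when the signal drops significantly (2 sigma). The hit call is the authors' own, does not follow from the count of time points alone, and its rule is not shown.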

Chains of the proteins cited; added tags and fusions are not shown.
UniProt P07333, whole entry: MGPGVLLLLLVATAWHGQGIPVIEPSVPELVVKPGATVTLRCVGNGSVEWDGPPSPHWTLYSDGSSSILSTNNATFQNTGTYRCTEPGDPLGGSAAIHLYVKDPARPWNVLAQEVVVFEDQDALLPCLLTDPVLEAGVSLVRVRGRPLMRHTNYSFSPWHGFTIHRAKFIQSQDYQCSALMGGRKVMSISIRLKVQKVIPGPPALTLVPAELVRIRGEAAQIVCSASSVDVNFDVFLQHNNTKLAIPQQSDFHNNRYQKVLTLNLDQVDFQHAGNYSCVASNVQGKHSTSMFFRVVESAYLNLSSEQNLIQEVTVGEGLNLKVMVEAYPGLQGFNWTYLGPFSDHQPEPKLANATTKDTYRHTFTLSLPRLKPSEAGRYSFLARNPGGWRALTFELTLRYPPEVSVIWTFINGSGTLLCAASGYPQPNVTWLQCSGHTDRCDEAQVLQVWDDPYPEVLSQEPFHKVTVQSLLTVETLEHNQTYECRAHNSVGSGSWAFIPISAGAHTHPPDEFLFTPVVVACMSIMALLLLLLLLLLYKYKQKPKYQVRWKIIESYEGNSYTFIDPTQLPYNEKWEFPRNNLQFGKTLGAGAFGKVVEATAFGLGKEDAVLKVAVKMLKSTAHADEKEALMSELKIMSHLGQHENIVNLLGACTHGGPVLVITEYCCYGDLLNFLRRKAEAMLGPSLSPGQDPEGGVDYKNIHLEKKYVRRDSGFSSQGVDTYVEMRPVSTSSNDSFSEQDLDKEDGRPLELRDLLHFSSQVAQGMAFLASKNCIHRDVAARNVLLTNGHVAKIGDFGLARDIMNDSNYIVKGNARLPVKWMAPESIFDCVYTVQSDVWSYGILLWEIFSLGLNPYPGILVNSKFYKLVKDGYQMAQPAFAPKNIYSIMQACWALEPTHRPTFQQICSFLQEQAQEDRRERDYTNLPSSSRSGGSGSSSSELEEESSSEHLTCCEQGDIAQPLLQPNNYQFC

What follows are molecules tested against CSF1R (UniProt P07333) (assay: number of time points (of 5) at which kinase-Nluc abundance scored as decreased, DMSO-normalised (count); higher = more persistent destabilization). Settings: K562; 2-18 h.

| SMILES | number of time points |
| --- | --- |
| CS(=O)(=O)c1cccc(CNc2nc(Nc3ccc4c(c3)CCC(=O)N4)ncc2C(F)(F)F)c1 (10 µM) | 0 |
| Nc1nc(Nc2ccc3c(c2)CC[C@@H](N2CCCC2)CC3)nn1-c1cc2c(nn1)-c1ccccc1CCC2 [Bemcentinib] (2.5 µM) | 0 |
| Nc1[nH]nc2nnc(-c3c(-c4ccccc4)nn4ccccc34)cc12 (10 µM) | 0 |
| CN1CCN(Cc2ccc(-c3cnc4[nH]cc(-c5ccc6[nH]ccc6c5)c4c3)cc2)CC1 (2.5 µM) | 0 |
| CC(C)n1cnc2c(Nc3cccc(Cl)c3)nc(N[C@H]3CCCC[C@@H]3N)nc21 (2.5 µM) | 0 |
| CCC(F)(F)c1cc(N2CCC(S(C)(=O)=O)CC2)nc2sc(C(N)=O)c(N)c12 (10 µM) | 0 |
| CC(C)c1cc2c(c(O)c1O)[C@@]13CCCC(C)(C)[C@@H]1C[C@@H]2OC3=O [Carnosol] (2.5 µM) | 0 |
| COc1ccc2nc3ccc(OC)cc3c(SCCCN)c2c1 (10 µM) | 0 |
| COc1cc2nnc(C(N)=O)c(Nc3ccc(C)cc3F)c2cc1N1CCN(CCO)CC1 (2.5 µM) | 0 |
| Nc1ccc(C(=O)Nc2cccc(-c3nc(N4CCOCC4)c4oc5ncccc5c4n3)c2)cn1 (10 µM) | 0 |
| Cc1nn(CC(F)(F)F)cc1Nc1ncc(Br)c(NCc2ccc(S(N)(=O)=O)cc2)n1 (10 µM) | 0 |
| O=C1NC(=O)C(Cc2c[nH]c3c(Cl)cccc23)N1 (stereo unspecified) [Necroptosis-IN-1] (10 µM) | 0 |
| CCCCNc1ncc2c(-c3ccc(F)cc3)nn(CC3CCC(N)CC3)c2n1 (stereo unspecified) (2.5 µM) | 0 |
| Cn1cc(-c2nc(N[C@@H]3CCCC[C@@H]3N)c(F)c3c2C(=O)NC3)cn1 [TAK-659 (hydrochloride)] (2 µM) | 0 |
| O=C1OC(COc2ccccc2[N+](=O)[O-])CC1Cc1ccccc1 (stereo unspecified) (10 µM) | 0 |
| Cc1cnc(Nc2ccc(F)cc2Cl)nc1-c1c[nH]c(C(=O)N[C@H](CO)c2cccc(Cl)c2)c1 (10 µM) | 0 |
| N#Cc1cnc(Nc2cc(NC[C@H]3CNCCO3)c(C(F)(F)F)cn2)cn1 (10 µM) | 2 |
| CNc1cc2c(Nc3cccc(Br)c3)ncnc2cn1 (10 µM) | 0 |
| Cc1ncsc1-c1ccc(CNC(=O)[C@@H]2C[C@@H](O)CN2C(=O)[C@@H](NC(=O)COCCOc2ccc(-c3cc(Nc4ccc(OC(F)(F)F)cc4)ncn3)cc2)C(C)(C)C)cc1 (2.5 µM) | 0 |
| O=CN1CCN(c2ccc(C=C3C(=O)Nc4ccccc43)cc2)CC1 (10 µM) | 0 |
| CN1C(=O)[C@@H](NC(=O)c2cc(Cc3ccccc3)on2)COc2ccccc21 (10 µM) | 0 |
| O=C(CCl)c1c[nH]c2ccccc12 (2.5 µM) | 0 |
| NC(=O)c1c(NC(=O)C2CC2)sc2c1CCCC2 (10 µM) | 0 |
| CN(C)c1ccc(/C=C2\C(=O)Nc3ccccc32)c2ccccc12 (10 µM) | 2 |
| O=C(O)c1c[nH]c2cc(Cl)c(-c3ccc(C4(O)CCC4)cc3)cc12 (10 µM) | 0 |
| CC1=C(C#N)C(c2ccc3[nH]nc(C)c3c2)C(C#N)=C(C)N1 (10 µM) | 0 |

Nothing new here: 2 of the compounds above.

| SMILES | number of time points |
| --- | --- |
| COc1cc2nnc(C(N)=O)c(Nc3ccc(C)cc3F)c2cc1N1CCN(CCO)CC1 (2.5 µM) | 0 |
| Nc1ccc(C(=O)Nc2cccc(-c3nc(N4CCOCC4)c4oc5ncccc5c4n3)c2)cn1 (10 µM) | 0 |
